The target in the assay is Transforming growth factor beta receptor 2 (TβRII) (human (endogenous in SW480 and HCT116)) (UniProt P37173). Kind of assay: co-IP; endogenous proteins in SW480 cell lysate; IP with anti-SLC14A1 or anti-TβRII antibody, protein A/G-agarose, washed with PBS, immunoblot. On the technique in general: In western blotting, separated proteins are transferred to a membrane and probed.

Protein sequences, listed by entry. Tags and fused reporters are not part of them. Residues count along the entry.
UniProt P37173, residues 23-567: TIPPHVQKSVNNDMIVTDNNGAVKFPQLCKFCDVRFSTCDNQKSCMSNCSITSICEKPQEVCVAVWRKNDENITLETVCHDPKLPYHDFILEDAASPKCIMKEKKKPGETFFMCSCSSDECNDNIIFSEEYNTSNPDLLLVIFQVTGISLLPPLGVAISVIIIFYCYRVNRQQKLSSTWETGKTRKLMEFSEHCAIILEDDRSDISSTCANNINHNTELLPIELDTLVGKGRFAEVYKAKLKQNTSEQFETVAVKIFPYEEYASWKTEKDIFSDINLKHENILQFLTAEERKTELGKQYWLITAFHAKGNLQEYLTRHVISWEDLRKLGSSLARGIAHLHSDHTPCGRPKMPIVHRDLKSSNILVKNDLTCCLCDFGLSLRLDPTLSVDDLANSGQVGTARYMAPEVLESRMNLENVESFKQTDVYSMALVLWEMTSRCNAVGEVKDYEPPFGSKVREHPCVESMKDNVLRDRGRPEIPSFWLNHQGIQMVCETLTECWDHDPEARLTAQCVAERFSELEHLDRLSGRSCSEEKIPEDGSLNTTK

The source of these data is article PMC11282742.

No constants are given. Whether binding was seen depends on the method and setting. In cells and extracts the contact can be indirect. Some binding calls cover weakened binding; strength is not graded here.

B1: Solute Carrier Family 14 Member 1 (SLC14A1) (protein, UniProt Q13336 1-389)
chain: MEDSPTMVRVDSPTMVRGENQVSPCQGRRCFPKALGYVTGDMKELANQLKDKPVVLQFIDWILRGISQVVFVNNPVSGILILVGLLVQNPWWALTGWLGTVVSTLMALLLSQDRSLIASGLYGYNATLVGVLMAVFSDKGDYFWWLLLPVCAMSMTCPIFSSALNSMLSKWDLPVFTLPFNMALSMYLSATGHYNPFFPAKLVIPITTAPNISWSDLSALELLKSIPVGVGQIYGCDNPWTGGIFLGAILLSSPLMCLHAAIGSLLGIAAGLSLSAPFEDIYFGLWGFNSSLACIAMGGMFMALTWQTHLLALGCALFTAYLGVGMANFMAEVGLPACTWPFCLATLLFLIMTTKNSNIYKMPLSKVTYPEENRIFYLQAKKRMVESPL
With B1, the binding result was “binds”.
